Laboratory results published in the supplement of paper PMC11006884.
This list holds what a sample rich in targets with a hit left over. Single values of this set are uncertain. The entries are a selection whose mix differs from that of the whole data set.

The chains behind the UniProt entries cited, without tags or fusion partners. Where a name states a change or a piece, a line headed by the entry shows the natural chain unless it says otherwise.
UniProt Q06330: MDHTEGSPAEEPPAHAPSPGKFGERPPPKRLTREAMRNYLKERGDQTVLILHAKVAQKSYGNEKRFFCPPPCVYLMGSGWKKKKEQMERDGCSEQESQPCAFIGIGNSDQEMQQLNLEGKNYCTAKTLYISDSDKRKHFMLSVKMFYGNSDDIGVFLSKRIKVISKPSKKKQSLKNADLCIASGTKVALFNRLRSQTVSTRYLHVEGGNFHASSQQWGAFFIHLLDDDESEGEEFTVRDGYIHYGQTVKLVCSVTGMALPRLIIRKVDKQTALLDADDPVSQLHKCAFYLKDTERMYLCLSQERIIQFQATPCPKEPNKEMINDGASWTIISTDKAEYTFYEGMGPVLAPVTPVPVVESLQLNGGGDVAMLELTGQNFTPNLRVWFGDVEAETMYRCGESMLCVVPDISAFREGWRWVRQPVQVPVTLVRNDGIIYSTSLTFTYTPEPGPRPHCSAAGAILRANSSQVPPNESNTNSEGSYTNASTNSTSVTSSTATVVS
UniProt Q12874: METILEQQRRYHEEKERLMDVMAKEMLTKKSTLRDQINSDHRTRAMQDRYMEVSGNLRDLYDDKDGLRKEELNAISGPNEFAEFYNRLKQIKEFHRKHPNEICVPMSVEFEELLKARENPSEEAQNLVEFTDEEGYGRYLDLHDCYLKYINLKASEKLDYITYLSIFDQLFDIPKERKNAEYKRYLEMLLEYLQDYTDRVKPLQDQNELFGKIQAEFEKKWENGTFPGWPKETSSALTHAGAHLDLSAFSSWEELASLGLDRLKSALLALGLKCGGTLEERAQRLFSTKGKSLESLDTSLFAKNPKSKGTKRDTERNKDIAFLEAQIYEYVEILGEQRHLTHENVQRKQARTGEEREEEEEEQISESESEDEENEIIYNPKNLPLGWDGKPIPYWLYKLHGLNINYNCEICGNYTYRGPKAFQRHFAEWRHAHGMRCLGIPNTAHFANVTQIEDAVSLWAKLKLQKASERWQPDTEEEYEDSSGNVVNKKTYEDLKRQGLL
UniProt Q05048: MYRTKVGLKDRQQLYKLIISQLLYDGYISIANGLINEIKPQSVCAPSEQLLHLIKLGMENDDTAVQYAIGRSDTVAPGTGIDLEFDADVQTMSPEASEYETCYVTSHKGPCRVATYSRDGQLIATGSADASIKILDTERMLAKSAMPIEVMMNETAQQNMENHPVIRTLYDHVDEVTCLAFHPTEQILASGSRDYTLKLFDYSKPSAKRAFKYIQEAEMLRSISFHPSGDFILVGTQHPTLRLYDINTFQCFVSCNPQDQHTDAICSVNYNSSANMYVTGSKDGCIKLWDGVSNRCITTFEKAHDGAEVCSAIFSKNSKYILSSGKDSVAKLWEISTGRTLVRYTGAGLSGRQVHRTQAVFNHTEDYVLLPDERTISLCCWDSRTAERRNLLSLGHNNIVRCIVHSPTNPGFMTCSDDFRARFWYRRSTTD
UniProt Q13162: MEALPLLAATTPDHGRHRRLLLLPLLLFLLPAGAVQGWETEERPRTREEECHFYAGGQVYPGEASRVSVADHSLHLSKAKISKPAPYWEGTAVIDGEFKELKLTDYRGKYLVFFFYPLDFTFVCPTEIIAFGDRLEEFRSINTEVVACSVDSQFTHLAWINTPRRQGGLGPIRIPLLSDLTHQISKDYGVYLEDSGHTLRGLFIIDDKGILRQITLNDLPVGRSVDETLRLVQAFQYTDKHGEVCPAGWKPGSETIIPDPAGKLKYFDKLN
UniProt Q08J23, whole entry, looked up: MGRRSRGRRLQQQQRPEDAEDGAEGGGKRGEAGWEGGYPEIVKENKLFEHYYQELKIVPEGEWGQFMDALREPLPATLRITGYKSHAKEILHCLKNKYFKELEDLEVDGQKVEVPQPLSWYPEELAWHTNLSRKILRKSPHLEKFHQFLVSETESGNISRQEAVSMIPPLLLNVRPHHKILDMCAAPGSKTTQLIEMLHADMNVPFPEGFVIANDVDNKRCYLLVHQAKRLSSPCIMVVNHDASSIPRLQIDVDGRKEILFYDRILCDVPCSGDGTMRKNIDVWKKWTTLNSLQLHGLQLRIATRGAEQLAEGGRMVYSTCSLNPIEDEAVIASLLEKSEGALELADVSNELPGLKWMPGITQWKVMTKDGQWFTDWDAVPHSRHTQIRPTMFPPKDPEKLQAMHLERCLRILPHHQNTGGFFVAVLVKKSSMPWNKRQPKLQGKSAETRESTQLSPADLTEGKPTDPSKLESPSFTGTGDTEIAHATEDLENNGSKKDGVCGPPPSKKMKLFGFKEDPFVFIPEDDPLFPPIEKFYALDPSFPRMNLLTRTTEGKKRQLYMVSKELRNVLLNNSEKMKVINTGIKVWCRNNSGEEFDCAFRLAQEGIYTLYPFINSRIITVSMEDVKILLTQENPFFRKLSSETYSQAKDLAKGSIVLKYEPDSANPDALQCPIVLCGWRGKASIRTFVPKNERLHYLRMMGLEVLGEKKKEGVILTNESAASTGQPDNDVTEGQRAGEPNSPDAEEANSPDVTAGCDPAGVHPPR
UniProt Q13151: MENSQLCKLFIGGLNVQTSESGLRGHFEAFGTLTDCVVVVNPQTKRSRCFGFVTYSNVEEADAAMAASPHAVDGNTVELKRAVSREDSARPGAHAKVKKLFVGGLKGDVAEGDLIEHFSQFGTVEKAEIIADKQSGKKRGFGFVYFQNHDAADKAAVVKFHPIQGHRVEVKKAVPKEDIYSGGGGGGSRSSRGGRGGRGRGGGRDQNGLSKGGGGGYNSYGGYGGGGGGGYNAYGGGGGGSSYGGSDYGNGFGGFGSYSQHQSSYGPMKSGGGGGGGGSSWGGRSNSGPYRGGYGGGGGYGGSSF
UniProt Q12789: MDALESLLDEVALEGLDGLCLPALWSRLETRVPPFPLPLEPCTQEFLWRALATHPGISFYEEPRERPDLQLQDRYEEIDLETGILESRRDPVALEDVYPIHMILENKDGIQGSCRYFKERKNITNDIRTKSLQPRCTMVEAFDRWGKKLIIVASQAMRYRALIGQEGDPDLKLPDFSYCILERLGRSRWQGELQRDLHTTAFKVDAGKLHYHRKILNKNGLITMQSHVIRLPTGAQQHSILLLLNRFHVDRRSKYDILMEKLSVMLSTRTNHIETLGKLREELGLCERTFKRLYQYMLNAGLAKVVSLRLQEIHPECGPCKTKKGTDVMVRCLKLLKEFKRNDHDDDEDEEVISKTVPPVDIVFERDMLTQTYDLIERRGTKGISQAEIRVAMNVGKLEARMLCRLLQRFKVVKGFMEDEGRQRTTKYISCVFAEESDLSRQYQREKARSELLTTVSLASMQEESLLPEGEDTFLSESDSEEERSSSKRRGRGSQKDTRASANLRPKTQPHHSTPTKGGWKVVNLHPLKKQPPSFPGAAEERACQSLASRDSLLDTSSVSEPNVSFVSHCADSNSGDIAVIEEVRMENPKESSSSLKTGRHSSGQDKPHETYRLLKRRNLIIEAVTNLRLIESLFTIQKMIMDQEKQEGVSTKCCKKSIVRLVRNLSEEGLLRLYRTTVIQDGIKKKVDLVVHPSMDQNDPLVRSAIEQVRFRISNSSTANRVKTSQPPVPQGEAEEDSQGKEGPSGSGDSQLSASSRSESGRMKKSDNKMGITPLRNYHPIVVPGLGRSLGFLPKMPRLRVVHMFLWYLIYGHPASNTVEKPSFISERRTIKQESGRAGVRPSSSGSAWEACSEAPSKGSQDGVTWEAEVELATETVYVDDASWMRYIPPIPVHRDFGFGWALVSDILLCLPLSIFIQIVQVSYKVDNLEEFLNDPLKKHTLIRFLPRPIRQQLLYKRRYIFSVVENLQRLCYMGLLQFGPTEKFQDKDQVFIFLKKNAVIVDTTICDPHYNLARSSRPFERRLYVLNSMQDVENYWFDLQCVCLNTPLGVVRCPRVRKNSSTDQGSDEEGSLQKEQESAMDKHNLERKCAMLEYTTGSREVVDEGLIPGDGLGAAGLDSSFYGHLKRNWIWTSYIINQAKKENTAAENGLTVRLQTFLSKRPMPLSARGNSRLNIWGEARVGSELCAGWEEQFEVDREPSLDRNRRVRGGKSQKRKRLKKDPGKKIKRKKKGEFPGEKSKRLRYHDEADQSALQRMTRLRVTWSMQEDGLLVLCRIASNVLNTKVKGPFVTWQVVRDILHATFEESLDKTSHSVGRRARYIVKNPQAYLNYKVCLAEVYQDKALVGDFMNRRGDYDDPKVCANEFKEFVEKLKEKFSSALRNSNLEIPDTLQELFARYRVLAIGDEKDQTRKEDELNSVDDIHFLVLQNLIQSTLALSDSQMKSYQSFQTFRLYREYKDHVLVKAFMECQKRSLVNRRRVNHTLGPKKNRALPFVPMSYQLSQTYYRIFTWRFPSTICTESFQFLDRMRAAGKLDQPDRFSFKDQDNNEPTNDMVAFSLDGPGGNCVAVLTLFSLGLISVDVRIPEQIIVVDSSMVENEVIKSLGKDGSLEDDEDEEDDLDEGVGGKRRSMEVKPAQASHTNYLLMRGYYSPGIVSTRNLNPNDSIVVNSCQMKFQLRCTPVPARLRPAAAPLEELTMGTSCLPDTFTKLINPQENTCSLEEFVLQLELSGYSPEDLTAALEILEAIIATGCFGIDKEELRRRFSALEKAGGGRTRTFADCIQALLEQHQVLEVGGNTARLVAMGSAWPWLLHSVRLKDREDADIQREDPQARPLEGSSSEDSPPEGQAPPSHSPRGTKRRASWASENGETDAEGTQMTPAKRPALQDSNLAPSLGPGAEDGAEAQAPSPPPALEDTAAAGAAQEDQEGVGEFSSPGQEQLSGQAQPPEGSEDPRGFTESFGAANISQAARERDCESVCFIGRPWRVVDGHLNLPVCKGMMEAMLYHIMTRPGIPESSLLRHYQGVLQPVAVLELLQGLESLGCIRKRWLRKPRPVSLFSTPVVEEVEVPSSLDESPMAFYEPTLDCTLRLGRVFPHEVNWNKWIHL
UniProt Q13242, whole entry, looked up: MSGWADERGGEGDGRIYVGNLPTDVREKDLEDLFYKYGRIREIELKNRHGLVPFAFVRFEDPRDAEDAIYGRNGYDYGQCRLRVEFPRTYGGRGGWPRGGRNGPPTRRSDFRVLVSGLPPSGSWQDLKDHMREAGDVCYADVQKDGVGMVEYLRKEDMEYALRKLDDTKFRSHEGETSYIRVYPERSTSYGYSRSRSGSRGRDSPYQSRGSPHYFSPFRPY
UniProt Q07866: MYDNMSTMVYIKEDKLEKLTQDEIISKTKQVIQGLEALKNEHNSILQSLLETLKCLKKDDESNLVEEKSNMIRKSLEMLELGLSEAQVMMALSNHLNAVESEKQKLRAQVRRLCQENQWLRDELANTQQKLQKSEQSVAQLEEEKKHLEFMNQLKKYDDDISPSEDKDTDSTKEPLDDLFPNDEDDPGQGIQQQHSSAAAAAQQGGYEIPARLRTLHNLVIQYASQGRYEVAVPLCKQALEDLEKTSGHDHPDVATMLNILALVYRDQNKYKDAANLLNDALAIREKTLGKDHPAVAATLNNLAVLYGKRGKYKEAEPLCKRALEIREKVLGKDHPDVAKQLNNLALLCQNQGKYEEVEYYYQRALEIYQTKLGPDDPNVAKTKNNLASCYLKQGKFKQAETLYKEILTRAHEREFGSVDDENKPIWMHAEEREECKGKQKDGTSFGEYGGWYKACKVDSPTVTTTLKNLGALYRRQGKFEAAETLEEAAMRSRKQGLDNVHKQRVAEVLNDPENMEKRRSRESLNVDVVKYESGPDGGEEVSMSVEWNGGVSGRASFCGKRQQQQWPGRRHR
UniProt Q13427: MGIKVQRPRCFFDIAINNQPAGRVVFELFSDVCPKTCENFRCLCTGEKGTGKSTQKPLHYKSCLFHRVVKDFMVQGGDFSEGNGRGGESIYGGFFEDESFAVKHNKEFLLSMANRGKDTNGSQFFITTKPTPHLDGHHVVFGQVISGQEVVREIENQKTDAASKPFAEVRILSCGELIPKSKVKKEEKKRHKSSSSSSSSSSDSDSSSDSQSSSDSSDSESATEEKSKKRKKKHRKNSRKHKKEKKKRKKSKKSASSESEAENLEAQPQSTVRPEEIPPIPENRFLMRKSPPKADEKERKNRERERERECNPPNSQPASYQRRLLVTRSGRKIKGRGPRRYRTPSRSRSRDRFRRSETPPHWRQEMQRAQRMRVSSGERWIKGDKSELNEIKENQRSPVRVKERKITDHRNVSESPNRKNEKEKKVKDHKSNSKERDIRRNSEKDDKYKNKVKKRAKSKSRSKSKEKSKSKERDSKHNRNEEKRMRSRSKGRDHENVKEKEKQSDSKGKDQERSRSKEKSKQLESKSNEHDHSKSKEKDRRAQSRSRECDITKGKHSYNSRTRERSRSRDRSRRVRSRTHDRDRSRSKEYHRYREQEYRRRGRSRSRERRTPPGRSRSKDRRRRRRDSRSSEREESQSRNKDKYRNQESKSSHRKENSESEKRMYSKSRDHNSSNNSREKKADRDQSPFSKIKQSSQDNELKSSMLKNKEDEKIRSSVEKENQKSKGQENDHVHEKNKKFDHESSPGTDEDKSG

compound: COC(=O)/C=C/c1ccccc1 [methyl cinnamate]; assay: log2 ratio of iodoacetamide-alkyne labeling of the cysteine site, DMSO over compound (competition); higher = stronger covalent engagement of the cysteine by the compound, active = 1 or more; details: 500 µM; treatment time 1 h; system: HEK293T cell lysate
How it was run: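 HEK293T lysate (2 mg/mL) was incubated with electrophile (500 µM) or vehicle for 1 h at ambient temperature and then with iodoacetamide alkyne for 1 h. Labelled proteins were clicked to sCIP-TMT reagents, pooled, digested, enriched on streptavidin and measured by Orbitrap Eclipse LC-MS/MS with FAIMS, with FragPipe quantification. The per-cysteine log2 competition ratio is mean control-channel reporter intensity over mean compound-channel reporter intensity. Across three replicates with duplicate channels, cysteines quantified in only one replicate were excluded.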

log2 ratio of iodoacetamide-alkyne labeling, inactive:
RBPJ C68 (UniProt Q06330) 0.223
SF3A3 C274 (UniProt Q12874) 0.16
GLO1 C139 (UniProt Q04760) 0.0349
UBE3A C198 (UniProt Q05086) 0.308
DHX9 C12 (UniProt Q08211) -0.0348
NUP160 C1003 (UniProt Q12769) -0.0602
CSTF1 C178 (UniProt Q05048) -0.117
PRDX4 C245 (UniProt Q13162) 0.227
AKAP12 C1407 (UniProt Q02952) 0.331
UniProt Q02750_C207 0.0617
CBX3 C177 (UniProt Q13185) 0.144
GRSF1 C476 (UniProt Q12849) 0.269
CTBP1 C312 (UniProt Q13363) -0.0767
TRIM28 C232 (UniProt Q13263) -0.0783
PTPN11 C104 (UniProt Q06124) 0.176
NSUN2 C678 (UniProt Q08J23) 0.0493
HNRNPA0 C49 (UniProt Q13151) -0.113
NCBP1 C503 (UniProt Q09161) 0.231
GTF3C1 C1091 (UniProt Q12789) 0.155
IFIT5 C137 (UniProt Q13325) 0.161
COASY C144 (UniProt Q13057) 0.134
UniProt Q13242_C138 -0.121
CSTF3 C176 (UniProt Q12996) 0.223
KLC1 C456 (UniProt Q07866) 0.42
NSUN2 C221 (UniProt Q08J23) 0.0348
CAMSAP2 C512 (UniProt Q08AD1) 0.44
TRIM28 C717 (UniProt Q13263) -0.117
TRAF2 C129 (UniProt Q12933) 0.206
NSUN2 C599 (UniProt Q08J23) -0.0174
EIF3I C160 (UniProt Q13347) 0.0449
ILF3 C203 (UniProt Q12906) 0.107
SNTA1 C239 (UniProt Q13424) 0.133
PPIG C10 (UniProt Q13427) 0.135
RPL18A C22 (UniProt Q02543) 0.0525
AHNAK C1900 (UniProt Q09666) 0.288
AKAP12 C1479 (UniProt Q02952) 0.519
NSUN2 C184 (UniProt Q08J23) -0.133

2 successive records out of the list so far, quoted:
log2 ratio of iodoacetamide-alkyne labeling, inactive:
DHX9 C12 (UniProt Q08211) -0.0348
NUP160 C1003 (UniProt Q12769) -0.0602
